Results are given in words; binding and its absence hold for the method and conditions named. Binding seen in cells or lysates may run through a third protein. Here binding means that the protein was enriched with, or labelled near, the bait; the list need not be complete.
Target: Kinesin family member 5B (human (endogenous in A549 and SK-N-BE(2)C)) (UniProt P33176)
Test: affinity purification with mass spectrometry

Amino acid sequences for entries named in this document (tags omitted).
UniProt P33176: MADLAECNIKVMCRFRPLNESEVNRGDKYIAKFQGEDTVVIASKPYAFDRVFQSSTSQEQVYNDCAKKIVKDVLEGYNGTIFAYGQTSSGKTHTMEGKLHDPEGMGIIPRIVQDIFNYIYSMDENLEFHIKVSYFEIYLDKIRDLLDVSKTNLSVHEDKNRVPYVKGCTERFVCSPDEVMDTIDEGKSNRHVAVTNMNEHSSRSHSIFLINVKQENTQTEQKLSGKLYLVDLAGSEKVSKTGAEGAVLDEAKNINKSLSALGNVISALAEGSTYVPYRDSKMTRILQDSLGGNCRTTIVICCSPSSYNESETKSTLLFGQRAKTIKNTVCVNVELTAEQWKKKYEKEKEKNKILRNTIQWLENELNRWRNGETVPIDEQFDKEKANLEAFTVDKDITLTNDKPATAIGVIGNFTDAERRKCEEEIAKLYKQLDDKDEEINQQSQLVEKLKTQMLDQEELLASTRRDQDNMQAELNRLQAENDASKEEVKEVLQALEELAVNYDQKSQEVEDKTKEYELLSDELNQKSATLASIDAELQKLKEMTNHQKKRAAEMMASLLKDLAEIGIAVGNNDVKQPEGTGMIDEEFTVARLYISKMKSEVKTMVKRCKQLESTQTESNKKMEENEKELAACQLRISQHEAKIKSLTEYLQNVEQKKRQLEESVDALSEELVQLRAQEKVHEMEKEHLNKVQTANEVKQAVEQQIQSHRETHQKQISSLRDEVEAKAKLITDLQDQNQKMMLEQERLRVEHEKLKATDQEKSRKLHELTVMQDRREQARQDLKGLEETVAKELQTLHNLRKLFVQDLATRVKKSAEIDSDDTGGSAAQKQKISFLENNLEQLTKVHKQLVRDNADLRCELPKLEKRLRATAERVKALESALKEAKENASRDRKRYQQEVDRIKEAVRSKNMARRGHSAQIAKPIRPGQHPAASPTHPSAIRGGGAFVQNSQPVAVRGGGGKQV
UniProt O00429: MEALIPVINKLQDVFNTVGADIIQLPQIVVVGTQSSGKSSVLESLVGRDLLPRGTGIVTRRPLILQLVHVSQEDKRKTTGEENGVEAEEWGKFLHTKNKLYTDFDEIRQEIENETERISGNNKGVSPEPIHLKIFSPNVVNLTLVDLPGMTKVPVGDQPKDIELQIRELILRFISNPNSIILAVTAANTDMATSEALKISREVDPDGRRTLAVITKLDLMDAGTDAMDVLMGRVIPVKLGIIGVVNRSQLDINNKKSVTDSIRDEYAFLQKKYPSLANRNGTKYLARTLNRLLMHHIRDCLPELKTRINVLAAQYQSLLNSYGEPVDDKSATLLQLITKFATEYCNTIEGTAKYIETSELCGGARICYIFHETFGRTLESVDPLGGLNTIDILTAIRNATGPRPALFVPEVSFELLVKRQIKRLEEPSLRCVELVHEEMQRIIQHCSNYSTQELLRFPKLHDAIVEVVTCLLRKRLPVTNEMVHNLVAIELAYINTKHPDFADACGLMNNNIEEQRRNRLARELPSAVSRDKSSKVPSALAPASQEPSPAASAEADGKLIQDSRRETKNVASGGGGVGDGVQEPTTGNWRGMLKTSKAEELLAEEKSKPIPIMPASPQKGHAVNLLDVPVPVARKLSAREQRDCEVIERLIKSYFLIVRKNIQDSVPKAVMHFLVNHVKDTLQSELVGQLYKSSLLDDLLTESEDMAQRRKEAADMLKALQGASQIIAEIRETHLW

Question: For “Dynamin-related protein 1 (from UniProt O00429 1-736)”, which binding is on record?
Answer: binds

— publication doi:10.1101/2020.10.23.352385
